From the supplement of paper PMC10849652
The list shows a part of the results.

Protein sequences, listed by entry. Tags and fused reporters are not part of them. Lines headed by an entry give the natural chain unless they say otherwise; changes in a name come on top.
UniProt Q9Y5N5: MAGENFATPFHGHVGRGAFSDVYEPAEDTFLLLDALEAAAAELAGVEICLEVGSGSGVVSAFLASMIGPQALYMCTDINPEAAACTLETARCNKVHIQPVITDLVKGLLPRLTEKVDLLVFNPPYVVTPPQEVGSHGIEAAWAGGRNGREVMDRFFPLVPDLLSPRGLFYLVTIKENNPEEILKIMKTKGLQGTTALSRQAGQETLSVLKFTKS
UniProt Q15843, whole entry, looked up: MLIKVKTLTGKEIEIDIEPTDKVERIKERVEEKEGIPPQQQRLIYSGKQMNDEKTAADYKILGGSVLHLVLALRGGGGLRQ
UniProt Q9NXR1: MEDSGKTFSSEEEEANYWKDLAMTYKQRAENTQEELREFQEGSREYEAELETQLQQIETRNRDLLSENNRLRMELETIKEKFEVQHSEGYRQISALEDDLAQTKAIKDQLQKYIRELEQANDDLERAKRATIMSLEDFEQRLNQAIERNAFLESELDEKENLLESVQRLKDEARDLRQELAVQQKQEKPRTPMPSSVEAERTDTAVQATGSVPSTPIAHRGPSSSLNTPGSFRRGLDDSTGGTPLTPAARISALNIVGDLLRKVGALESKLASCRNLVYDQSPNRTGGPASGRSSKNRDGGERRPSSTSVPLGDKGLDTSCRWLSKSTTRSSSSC
UniProt P17050: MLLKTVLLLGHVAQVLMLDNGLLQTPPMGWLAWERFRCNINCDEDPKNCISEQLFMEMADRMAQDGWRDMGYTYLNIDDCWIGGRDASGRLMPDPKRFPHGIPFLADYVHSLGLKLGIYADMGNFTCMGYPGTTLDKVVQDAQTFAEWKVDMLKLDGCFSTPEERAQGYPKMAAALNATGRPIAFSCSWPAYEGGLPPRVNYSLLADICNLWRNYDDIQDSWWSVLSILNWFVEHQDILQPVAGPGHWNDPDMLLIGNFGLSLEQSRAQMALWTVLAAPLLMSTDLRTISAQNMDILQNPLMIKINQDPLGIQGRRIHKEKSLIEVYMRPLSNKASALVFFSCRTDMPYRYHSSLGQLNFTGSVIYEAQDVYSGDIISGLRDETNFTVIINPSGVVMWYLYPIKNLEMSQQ
UniProt O95299, whole entry, looked up: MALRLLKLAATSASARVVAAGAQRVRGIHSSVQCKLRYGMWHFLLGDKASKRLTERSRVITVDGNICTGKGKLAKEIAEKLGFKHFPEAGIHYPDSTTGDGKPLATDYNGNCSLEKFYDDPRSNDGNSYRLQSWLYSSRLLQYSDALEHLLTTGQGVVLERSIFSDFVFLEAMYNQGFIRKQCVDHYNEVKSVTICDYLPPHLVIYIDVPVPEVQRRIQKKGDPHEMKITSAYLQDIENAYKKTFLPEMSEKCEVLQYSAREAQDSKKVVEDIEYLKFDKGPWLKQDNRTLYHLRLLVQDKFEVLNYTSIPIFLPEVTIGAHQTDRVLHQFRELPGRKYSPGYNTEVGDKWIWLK
UniProt A2RRP1: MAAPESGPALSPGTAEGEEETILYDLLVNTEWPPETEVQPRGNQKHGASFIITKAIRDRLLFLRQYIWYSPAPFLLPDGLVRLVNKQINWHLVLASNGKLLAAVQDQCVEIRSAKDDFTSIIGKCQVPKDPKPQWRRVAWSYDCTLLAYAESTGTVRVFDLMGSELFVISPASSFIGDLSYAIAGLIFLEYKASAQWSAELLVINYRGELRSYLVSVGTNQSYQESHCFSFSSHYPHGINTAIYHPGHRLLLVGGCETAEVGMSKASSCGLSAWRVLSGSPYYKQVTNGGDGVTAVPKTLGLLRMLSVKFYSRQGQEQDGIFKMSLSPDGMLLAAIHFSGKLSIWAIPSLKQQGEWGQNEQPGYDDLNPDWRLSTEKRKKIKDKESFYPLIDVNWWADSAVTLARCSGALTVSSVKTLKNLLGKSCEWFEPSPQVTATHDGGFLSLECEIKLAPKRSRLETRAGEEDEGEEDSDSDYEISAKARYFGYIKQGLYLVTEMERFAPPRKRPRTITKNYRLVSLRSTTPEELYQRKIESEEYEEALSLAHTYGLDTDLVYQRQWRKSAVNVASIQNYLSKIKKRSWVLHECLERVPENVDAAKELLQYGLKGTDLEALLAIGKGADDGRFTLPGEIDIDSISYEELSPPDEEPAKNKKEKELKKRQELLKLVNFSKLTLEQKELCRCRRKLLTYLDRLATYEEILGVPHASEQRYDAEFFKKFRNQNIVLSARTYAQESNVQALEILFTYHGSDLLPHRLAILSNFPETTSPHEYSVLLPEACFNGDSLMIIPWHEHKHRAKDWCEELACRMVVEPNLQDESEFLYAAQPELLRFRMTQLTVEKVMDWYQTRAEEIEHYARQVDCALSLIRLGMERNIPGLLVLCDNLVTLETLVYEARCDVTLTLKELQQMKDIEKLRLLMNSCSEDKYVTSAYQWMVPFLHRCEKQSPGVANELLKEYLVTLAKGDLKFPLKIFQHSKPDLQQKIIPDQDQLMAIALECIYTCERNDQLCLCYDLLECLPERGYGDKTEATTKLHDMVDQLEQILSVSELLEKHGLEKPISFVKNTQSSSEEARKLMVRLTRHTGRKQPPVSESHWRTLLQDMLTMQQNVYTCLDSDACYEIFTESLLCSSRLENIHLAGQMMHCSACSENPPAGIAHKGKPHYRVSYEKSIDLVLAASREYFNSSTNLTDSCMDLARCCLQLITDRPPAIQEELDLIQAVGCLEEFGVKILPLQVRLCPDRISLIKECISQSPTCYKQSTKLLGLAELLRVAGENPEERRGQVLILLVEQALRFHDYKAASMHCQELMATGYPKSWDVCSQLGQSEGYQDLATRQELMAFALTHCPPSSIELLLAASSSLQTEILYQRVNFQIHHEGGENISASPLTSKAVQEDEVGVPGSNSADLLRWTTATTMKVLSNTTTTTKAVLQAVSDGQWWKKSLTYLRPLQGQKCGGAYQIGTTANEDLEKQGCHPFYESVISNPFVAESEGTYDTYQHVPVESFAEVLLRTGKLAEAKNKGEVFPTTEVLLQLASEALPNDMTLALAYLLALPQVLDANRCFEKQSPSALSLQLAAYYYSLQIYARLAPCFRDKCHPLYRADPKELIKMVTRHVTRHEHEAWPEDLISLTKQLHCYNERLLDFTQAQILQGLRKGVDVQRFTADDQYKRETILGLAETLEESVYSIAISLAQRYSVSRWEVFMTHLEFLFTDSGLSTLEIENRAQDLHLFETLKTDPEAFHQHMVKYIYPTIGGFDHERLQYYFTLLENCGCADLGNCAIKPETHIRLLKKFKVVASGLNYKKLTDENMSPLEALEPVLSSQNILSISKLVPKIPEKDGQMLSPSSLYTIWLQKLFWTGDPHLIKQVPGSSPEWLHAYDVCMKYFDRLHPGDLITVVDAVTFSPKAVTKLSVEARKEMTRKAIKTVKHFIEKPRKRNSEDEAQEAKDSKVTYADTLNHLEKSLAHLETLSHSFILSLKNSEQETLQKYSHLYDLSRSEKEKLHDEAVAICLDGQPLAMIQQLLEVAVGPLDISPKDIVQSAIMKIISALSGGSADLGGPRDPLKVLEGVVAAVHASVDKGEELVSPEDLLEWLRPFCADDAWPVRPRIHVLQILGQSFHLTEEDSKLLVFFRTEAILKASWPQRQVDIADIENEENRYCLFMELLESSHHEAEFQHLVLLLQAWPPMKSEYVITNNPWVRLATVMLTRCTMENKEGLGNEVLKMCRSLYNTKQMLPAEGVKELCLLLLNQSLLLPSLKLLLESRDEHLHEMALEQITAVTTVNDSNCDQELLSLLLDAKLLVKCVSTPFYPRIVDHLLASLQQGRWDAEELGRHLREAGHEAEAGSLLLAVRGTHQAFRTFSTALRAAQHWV
UniProt O14777: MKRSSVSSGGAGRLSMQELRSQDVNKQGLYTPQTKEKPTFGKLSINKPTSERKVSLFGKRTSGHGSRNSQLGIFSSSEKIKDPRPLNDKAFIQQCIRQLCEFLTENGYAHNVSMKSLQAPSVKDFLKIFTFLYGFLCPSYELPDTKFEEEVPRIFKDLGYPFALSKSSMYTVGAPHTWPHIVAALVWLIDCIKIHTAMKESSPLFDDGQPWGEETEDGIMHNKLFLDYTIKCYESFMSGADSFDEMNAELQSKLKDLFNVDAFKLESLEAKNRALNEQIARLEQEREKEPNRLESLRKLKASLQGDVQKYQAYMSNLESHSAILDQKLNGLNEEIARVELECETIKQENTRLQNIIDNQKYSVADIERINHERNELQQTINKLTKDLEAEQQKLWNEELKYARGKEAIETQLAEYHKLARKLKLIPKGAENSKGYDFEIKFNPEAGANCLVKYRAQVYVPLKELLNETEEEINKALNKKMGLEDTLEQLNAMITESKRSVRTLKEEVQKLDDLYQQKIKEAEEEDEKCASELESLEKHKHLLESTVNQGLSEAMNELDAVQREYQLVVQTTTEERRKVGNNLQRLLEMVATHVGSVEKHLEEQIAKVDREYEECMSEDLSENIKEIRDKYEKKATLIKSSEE
UniProt Q9UHB4: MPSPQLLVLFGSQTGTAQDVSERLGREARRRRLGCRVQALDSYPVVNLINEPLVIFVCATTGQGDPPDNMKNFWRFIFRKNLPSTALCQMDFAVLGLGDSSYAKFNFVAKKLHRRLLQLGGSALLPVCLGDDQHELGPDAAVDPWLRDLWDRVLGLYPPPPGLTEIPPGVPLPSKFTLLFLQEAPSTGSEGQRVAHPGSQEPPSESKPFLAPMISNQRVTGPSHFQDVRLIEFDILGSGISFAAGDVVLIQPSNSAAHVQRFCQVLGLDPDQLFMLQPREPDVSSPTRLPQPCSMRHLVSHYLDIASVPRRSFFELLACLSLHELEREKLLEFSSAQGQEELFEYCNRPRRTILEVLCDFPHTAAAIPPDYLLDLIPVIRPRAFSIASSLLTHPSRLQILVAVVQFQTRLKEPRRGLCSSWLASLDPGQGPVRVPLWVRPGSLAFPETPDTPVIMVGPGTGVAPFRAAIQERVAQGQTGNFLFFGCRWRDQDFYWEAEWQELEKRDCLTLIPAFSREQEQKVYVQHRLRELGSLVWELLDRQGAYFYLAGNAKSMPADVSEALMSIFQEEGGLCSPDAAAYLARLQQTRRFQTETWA
UniProt O75306, whole entry, looked up: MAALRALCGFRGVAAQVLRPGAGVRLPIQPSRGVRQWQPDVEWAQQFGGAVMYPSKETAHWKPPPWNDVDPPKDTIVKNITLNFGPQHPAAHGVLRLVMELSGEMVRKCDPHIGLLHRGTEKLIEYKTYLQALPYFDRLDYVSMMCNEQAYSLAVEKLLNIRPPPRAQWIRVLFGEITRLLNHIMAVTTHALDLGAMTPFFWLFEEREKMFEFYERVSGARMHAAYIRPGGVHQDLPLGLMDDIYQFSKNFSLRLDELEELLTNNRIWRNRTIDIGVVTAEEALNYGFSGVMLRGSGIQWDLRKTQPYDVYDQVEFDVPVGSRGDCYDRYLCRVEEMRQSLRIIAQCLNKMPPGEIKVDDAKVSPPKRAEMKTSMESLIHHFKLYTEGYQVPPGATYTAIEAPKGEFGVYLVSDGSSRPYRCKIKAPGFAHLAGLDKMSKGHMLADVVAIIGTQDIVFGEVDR
UniProt Q9Y6M9, whole entry, looked up: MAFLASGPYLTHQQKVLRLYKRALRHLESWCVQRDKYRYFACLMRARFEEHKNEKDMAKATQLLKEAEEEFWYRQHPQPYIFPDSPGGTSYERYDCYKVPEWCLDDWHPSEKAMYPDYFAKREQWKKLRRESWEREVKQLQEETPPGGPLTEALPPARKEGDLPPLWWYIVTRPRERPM
UniProt Q6N069: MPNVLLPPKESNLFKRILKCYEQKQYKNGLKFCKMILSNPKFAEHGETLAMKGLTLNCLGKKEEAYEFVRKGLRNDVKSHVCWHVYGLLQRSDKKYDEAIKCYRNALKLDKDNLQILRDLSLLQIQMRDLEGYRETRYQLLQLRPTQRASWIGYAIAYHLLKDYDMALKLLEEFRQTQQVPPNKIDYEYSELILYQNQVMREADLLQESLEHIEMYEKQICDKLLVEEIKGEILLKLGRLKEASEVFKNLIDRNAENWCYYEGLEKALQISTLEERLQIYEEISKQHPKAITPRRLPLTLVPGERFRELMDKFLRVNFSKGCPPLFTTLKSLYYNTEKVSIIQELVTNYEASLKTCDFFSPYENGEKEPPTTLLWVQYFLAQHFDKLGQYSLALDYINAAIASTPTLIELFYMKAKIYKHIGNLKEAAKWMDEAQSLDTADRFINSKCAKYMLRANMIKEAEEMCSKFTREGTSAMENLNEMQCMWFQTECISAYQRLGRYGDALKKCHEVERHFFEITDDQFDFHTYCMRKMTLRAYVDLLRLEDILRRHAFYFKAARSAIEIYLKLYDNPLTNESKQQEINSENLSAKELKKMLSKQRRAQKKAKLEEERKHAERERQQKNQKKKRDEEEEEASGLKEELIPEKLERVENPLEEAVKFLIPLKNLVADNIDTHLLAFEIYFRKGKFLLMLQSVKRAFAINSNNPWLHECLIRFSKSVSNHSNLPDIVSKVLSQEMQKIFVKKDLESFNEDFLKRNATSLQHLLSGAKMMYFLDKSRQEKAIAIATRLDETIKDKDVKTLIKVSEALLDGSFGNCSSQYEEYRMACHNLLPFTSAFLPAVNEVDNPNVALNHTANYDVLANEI

Legend:
Assay in all cases: log2 fold change, soluble protein after heating vs DMSO (PISA); higher = thermal stabilisation; K562 cells, 10 uM, 30 min; active = over 0.2 and 3.5 SD of the protein, either way, in both replicates (recomputed)
[1] = compound: CN1CCN(CCOc2cc(OC3CCOCC3)c3c(Nc4c(Cl)ccc5c4OCO5)ncnc3c2)CC1 [saracatinib]
Summary of the method: (§1)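 Soluble protein was defined as the supernatant after 21,000xg for 90 min. It came from K562 cells at 2×10^6 cells/mL given 10 μM compound for 30 min, heated in aliquots for 3 min across 48°C-58°C, pooled, and extracted in PBS with 0.5% NP-40 at 4°C, and was quantified by TMTpro 16plex LC-MS/MS with equalised channel sums. Thermal stability against control samples, from duplicates, is reported as log2 fold change.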

[2] = compound: CN1CCN(c2nc(C3=C(c4c[nH]c5ccccc45)C(=O)NC3=O)c3ccccc3n2)CC1 [sotrastaurin]
Summary of the method: as §1

[3] = compound: CN1CC[C@H](c2c(O)cc(O)c3c(=O)cc(-c4ccccc4Cl)oc23)[C@H](O)C1 [alvocidib]
Summary of the method: as §1

[4] = compound: CN1CCc2c(c3ccccc3n2Cc2ccc(C(=O)NO)cc2)C1 [Tubastatin A]
Summary of the method: as §1

[5] = compound: CNC(=O)C1=CC=CC=C1NC2=NC(=NC=C2Cl)NC3=C(C=C(C=C3)N4CCOCC4)OC
Summary of the method: as §1

[6] = compound: CNC(=O)c1ccc(Nc2ncc(C(F)(F)F)c(NCc3nccnc3N(C)S(C)(=O)=O)n2)cc1 [defactinib]
Summary of the method: as §1

[7] = compound: CNCc1ccc(-c2[nH]c3cc(F)cc4c3c2CCNC4=O)cc1 [rucaparib]
Summary of the method: as §1

[8] = compound: CNc1nc(-c2ccc3c(N)n[nH]c3c2)cc(N2C[C@@H](C(=O)NC3CCCCC3)CC[C@H]2C)n1
Summary of the method: as §1

[9] = compound: COC(=O)N[C@@H](C)CNc1nccc(-c2cn(C(C)C)nc2-c2cc(Cl)cc(NS(C)(=O)=O)c2F)n1 [encorafenib]
Summary of the method: as §1

[10] = compound: COC(=O)[C@H](CCSC)NC(=O)C1=C(C=C(C=C1)NC[C@H](CS)N)C2=CC=CC=C2
Summary of the method: as §1

[11] = compound: COC1=CC=C(C=C1)CN2C=CC3=C2C=C(C=C3)C(=O)NO
Summary of the method: as §1

[12] = compound: CON(C)C(=O)N1N=C(c2cc(F)ccc2F)S[C@@]1(CCCN)c1ccccc1 [filanesib]
Summary of the method: as §1

[13] = compound: CO[C@H]1C[C@@H]2CC[C@@H](C)[C@@](O)(O2)C(=O)C(=O)N2CCCC[C@H]2C(=O)O[C@H]([C@H](C)C[C@@H]2CC[C@H](n3cnnn3)[C@H](OC)C2)CC(=O)[C@H](C)/C=C(\C)[C@@H](O)[C@@H](OC)C(=O)[C@H](C)C[C@H](C)/C=C/C=C/C=C/1C [zotarolimus]
Summary of the method: as §1

[14] = compound: COc1cc(C(=O)O)ccc1NC(=O)[C@@H]1N[C@@H](CC(C)(C)C)[C@](C#N)(c2ccc(Cl)cc2F)[C@H]1c1cccc(Cl)c1F [idasanutlin]
Summary of the method: as §1

[15] = compound: COc1cc(Nc2ncc3c(n2)-c2ccc(Cl)cc2C(c2c(F)cccc2OC)=NC3)ccc1C(=O)O [alisertib]
Summary of the method: as §1

[16] = compound: COc1cc2nc(-c3cc(F)ccc3O)nc(N[C@@H]3CNC[C@H]3C(C)(C)O)c2cc1OC
Summary of the method: as §1

[17] = compound: COc1cc2ncnc(Nc3ccc(F)c(Cl)c3)c2cc1OCCCN1CCOCC1 [gefitinib]
Summary of the method: as §1

[18] = compound: COc1cccc2cc(-c3nc([C@H]4CC[C@H](C(=O)O)CC4)n4ncnc(N)c34)[nH]c12
Summary of the method: as §1

[19] = compound: CS(=O)(=O)CCNCc1ccc(-c2ccc3ncnc(Nc4ccc(OCc5cccc(F)c5)c(Cl)c4)c3c2)o1 [lapatinib]
Summary of the method: as §1

[20] = compound: CS(=O)(=O)N1CCN(Cc2cc3nc(-c4cccc5[nH]ncc45)nc(N4CCOCC4)c3s2)CC1 [pictilisib]
Summary of the method: as §1

Measured: log2 fold change

N6AMT1 (UniProt Q9Y5N5)
inactive: [1] -0.012 | [2] -0.07 | [3] -0.017 | [4] -0.011 | [5] 0.005 | [6] 0 | [7] -0.032 | [8] 0.022 | [9] -0.098 | [10] -0.087 | [11] -0.165 | [12] 0.019 | [13] 0.019 | [14] -0.003 | [15] -0.046 | [16] 0.054 | [17] -0.044 | [18] 0.044 | [19] -0.042 | [20] 0.064

NCAPD3 (UniProt P42695)
inactive: [1] -0.078 | [2] -0.07 | [3] 0.001 | [4] 0.05 | [5] -0.022 | [6] 0.025 | [7] 0.084 | [8] -0.005 | [9] 0.066 | [10] 0.097 | [11] -0.079 | [12] -0.081 | [13] -0.002 | [14] -0.069 | [15] -0.037 | [16] 0.039 | [17] -0.026 | [18] -0.013 | [19] -0.019 | [20] 0.143

NEDD8 (UniProt Q15843)
inactive: [1] 0 | [2] 0.027 | [3] -0.094 | [4] 0.057 | [5] -0.039 | [6] -0.041 | [7] -0.01 | [8] -0.017 | [9] -0.01 | [10] -0.063 | [11] -0.033 | [12] 0.064 | [13] 0.023 | [14] -0.044 | [15] -0.043 | [16] 0.035 | [17] 0.022 | [18] 0.059 | [19] -0.098 | [20] -0.025

NDE1 isoform 1 (UniProt Q9NXR1)
inactive: [1] 0.085 | [2] -0.008 | [3] 0 | [4] 0.073 | [5] 0.045 | [6] -0.029 | [7] -0.018 | [8] -0.004 | [9] -0.02 | [10] 0.003 | [11] -0.004 | [12] -0.002 | [13] -0.025 | [14] 0.007 | [15] -0.041 | [16] -0.016 | [17] -0.033 | [18] 0 | [19] 0.029 | [20] 0.013

NAGA (UniProt P17050)
inactive: [1] -0.021 | [2] 0.02 | [3] 0.01 | [4] -0.036 | [5] -0.062 | [6] 0.014 | [7] -0.004 | [8] -0.051 | [9] -0.026 | [10] 0.041 | [11] -0.026 | [12] -0.078 | [13] -0.067 | [14] 0.036 | [15] 0.074 | [16] 0.005 | [17] -0.012 | [18] 0.079 | [19] 0.007 | [20] -0.044

NDUFA10 (UniProt O95299)
inactive: [1] -0.04 | [2] 0.079 | [3] -0.063 | [4] -0.022 | [5] -0.044 | [6] -0.052 | [7] -0.017 | [8] 0.062 | [9] 0.044 | [10] 0.009 | [11] -0.012 | [12] -0.026 | [13] 0.013 | [14] -0.188 | [15] 0.034 | [16] 0.033 | [17] -0.058 | [18] 0.073 | [19] -0.076 | [20] -0.009

NBAS (UniProt A2RRP1)
inactive: [1] -0.169 | [2] -0.193 | [3] 0.146 | [4] 0.148 | [5] 0.008 | [6] 0.109 | [7] 0.448 | [8] 0.053 | [9] 0.304 | [10] -0.175 | [11] 0.027 | [12] 0.289 | [13] 0.174 | [14] 0.096 | [15] -0.08 | [16] -0.075 | [17] 0.002 | [18] -0.22 | [19] 0.099 | [20] -0.035

NDC80 (UniProt O14777)
inactive: [1] -0.124 | [2] -0.049 | [3] 0.105 | [4] 0.11 | [5] 0.024 | [6] 0.09 | [7] 0.537 | [8] 0.018 | [9] 0.335 | [10] -0.05 | [11] -0.072 | [12] 0.243 | [13] -0.01 | [14] 0.051 | [15] 0.009 | [16] 0.161 | [17] -0.132 | [18] -0.011 | [19] -0.112 | [20] 0.134

NDOR1 isoform 2 (UniProt Q9UHB4)
inactive: [1] 0.054 | [2] 0.038 | [3] -0.008 | [4] 0.234 | [5] -0.057 | [6] -0.044 | [7] 0.154 | [8] -0.035 | [9] 0.001 | [10] -0.02 | [11] -0.01 | [12] 0.039 | [13] 0.039 | [14] -0.044 | [15] 0.073 | [16] 0.109 | [17] -0.033 | [18] -0.024 | [19] 0.003 | [20] -0.077

NAA25 (UniProt Q14CX7)
inactive: [1] -0.004 | [2] 0.028 | [3] -0.144 | [4] 0.039 | [5] 0.018 | [6] -0.065 | [7] -0.035 | [8] 0.009 | [9] 0.01 | [10] -0.009 | [11] 0.021 | [12] -0.091 | [13] 0.068 | [14] -0.02 | [15] -0.029 | [16] 0.014 | [17] 0.027 | [18] 0.079 | [19] -0.003 | [20] 0.012

NDUFS2 (UniProt O75306)
inactive: [1] 0.002 | [2] -0.055 | [3] -0.09 | [4] -0.035 | [5] 0 | [6] -0.003 | [7] -0.024 | [8] 0.003 | [9] -0.004 | [10] -0.006 | [11] 0.016 | [12] -0.136 | [13] 0.029 | [14] -0.107 | [15] 0.001 | [16] -0.041 | [17] -0.011 | [18] 0.038 | [19] 0.022 | [20] 0.006

NECAP2 (UniProt Q9NVZ3)
inactive: [1] 0.058 | [2] -0.033 | [3] -0.038 | [4] 0.021 | [5] -0.033 | [6] -0.041 | [7] -0.023 | [8] 0.025 | [9] 0.017 | [10] 0.012 | [11] -0.002 | [12] -0.019 | [13] 0.029 | [14] -0.03 | [15] -0.062 | [16] -0.003 | [17] -0.002 | [18] 0.037 | [19] 0.022 | [20] 0.049

NDUFB9 (UniProt Q9Y6M9)
inactive: [1] 0.037 | [2] 0.061 | [3] -0.044 | [4] -0.011 | [5] 0.04 | [6] -0.026 | [7] 0.019 | [8] -0.012 | [9] -0.015 | [10] 0.015 | [11] -0.05 | [12] -0.019 | [13] 0.008 | [14] -0.027 | [15] -0.076 | [16] 0.072 | [17] -0.02 | [18] 0.03 | [19] -0.038 | [20] 0.062

NDST1 (UniProt P52848)
inactive: [1] 0.03 | [2] -0.023 | [3] 0.009 | [4] 0.05 | [5] -0.022 | [6] -0.02 | [7] 0.084 | [8] 0.016 | [9] -0.075 | [10] 0.013 | [11] -0.069 | [12] 0.037 | [13] 0.133 | [14] 0.014 | [15] -0.001 | [16] 0.09 | [17] 0.009 | [18] 0.122 | [19] 0.047 | [20] -0.009

Retrieved one by one from above (two):
NBAS (UniProt A2RRP1)
inactive: [1] -0.169 | [2] -0.193 | [3] 0.146 | [4] 0.148 | [5] 0.008 | [6] 0.109 | [7] 0.448 | [8] 0.053 | [9] 0.304 | [10] -0.175 | [11] 0.027 | [12] 0.289 | [13] 0.174 | [14] 0.096 | [15] -0.08 | [16] -0.075 | [17] 0.002 | [18] -0.22 | [19] 0.099 | [20] -0.035

NDUFS2 (UniProt O75306)
inactive: [1] 0.002 | [2] -0.055 | [3] -0.09 | [4] -0.035 | [5] 0 | [6] -0.003 | [7] -0.024 | [8] 0.003 | [9] -0.004 | [10] -0.006 | [11] 0.016 | [12] -0.136 | [13] 0.029 | [14] -0.107 | [15] 0.001 | [16] -0.041 | [17] -0.011 | [18] 0.038 | [19] 0.022 | [20] 0.006

Later entries.

NAA16 (UniProt Q6N069)
inactive: [1] 0.001 | [2] 0.016 | [3] -0.126 | [4] 0.052 | [5] -0.036 | [6] -0.166 | [7] 0.054 | [8] -0.015 | [9] 0.012 | [10] -0.013 | [11] -0.032 | [12] -0.001 | [13] 0.096 | [14] 0.011 | [15] 0.04 | [16] 0.048 | [17] 0 | [18] -0.002 | [19] -0.002 | [20] -0.015

NADSYN1 (UniProt Q6IA69)
inactive: [1] 0.12 | [2] 0.024 | [3] -0.032 | [4] -0.059 | [5] -0.004 | [6] -0.036 | [7] 0.235 | [8] 0.007 | [9] -0.043 | [10] 0.009 | [11] -0.007 | [12] -0.011 | [13] 0.004 | [14] 0.058 | [15] -0.108 | [16] -0.061 | [17] 0.026 | [18] 0.049 | [19] 0.098 | [20] 0.009
